In article PMC4819907:
No constants are given. Whether binding was seen depends on the method and setting. In cells and extracts the contact can be indirect. Some entries that bind do so weakly or less than the wild type. Sequences can lack the tags named with a protein.

Protein sequences, listed by entry. Tags and fused reporters are not part of them.
UniProt Q96EP0: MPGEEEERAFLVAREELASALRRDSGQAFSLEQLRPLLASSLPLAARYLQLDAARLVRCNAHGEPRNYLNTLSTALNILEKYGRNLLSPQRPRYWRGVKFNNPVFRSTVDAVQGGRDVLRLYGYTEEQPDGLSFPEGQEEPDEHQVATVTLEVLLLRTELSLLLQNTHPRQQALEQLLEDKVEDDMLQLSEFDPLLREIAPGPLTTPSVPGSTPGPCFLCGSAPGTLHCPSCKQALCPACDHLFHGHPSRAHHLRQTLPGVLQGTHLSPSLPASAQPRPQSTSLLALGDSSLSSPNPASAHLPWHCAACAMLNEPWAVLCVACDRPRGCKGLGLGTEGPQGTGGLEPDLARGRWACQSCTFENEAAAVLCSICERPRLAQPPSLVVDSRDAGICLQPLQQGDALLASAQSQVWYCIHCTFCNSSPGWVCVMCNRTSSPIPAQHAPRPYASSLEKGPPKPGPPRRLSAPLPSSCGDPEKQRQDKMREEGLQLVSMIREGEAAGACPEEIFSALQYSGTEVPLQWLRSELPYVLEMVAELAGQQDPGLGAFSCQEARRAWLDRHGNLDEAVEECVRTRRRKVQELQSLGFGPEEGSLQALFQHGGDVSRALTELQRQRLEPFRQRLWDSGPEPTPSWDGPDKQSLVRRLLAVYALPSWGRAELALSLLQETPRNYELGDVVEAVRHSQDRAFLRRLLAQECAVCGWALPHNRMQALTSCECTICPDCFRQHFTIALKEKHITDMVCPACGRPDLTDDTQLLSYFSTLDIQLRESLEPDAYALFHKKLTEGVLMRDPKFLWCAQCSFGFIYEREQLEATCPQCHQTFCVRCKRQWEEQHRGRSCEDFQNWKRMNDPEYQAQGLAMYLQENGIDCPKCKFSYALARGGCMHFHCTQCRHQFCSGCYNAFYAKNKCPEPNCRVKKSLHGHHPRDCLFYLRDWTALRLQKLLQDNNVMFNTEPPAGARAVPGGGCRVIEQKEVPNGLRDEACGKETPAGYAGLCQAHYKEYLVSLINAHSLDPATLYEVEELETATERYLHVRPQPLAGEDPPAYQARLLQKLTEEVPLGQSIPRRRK

Target: T1, FLAG-tagged CYLD (UniProt Q9NQC7)
T1 sequence: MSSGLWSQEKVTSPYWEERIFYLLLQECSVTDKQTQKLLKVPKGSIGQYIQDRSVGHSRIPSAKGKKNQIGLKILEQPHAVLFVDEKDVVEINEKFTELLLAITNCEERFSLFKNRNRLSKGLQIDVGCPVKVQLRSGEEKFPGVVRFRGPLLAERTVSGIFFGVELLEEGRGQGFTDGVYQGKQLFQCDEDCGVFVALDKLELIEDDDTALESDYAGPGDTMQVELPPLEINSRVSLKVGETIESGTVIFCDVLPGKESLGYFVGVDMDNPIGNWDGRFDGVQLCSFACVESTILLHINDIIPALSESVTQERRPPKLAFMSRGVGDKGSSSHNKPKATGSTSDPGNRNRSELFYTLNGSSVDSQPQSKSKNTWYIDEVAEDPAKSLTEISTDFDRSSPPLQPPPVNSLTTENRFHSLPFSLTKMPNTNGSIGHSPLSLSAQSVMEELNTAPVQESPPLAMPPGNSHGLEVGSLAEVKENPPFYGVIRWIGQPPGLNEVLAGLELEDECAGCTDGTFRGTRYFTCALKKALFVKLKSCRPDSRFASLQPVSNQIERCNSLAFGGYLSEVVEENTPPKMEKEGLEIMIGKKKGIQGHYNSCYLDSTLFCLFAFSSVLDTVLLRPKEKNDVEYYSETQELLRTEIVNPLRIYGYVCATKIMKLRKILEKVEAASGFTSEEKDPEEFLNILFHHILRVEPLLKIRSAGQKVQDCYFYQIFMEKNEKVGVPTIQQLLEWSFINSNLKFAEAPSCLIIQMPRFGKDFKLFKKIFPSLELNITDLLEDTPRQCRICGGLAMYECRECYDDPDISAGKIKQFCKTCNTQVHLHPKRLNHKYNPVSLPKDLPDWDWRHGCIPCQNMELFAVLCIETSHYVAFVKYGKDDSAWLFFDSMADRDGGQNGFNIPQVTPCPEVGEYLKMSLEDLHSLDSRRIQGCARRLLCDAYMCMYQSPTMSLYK
Assay: co-IP; immunoprecipitation of exogenous FLAG-tagged CYLD; immunoblotting for HOIP

binding: binds
Substance: HOIP (from UniProt Q96EP0 1-1072) (enzyme)
